Values from PubChem BioAssay AID1259308 (NCATS, 2017)
The whole screen tested about 59,000 reagents; shown is a part drawn at random. Of all reagents, about 1,510 (2.6%) were called active. 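Calls use total luciferase alone and ignore viability, so some active siRNAs may act by altering cell number.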 A number with no mark means an inactive call. Reagents against one gene are numbered here. Further read-outs or replicates are left out here.

Aim: 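Candidate targets for better recombinant protein yield in mammalian cells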 (primary screen)
System: human HEK293 embryonic kidney cells stably expressing firefly luciferase (HEK-CMV-Luc2-Hygro)
Reagents: single siRNA against human genes, 0.8 pmol siRNA per well
Timing: 72 h
Measurement: 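Reporter luminescence and viable-cell signal on separate replicate plates, given as percent of non-targeting control and median/MAD z-scores, plus per-cell luciferase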
Reading the numbers: total luciferase, z-score and total luciferase, % of control: higher = more reporter protein produced
Call rule: 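Active when the median/MAD z-score for overall luciferase is greater than 3; a gene was taken forward for validation with new siRNAs if at least two of its three siRNAs passed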
Meaning of the calls: active = raised luciferase; inactive = no rise

Against STIMATE #1, the entry reads total luciferase, z-score -0.0707; total luciferase, % of control 80.5.
With knock-down of STIMATE #2, the record shows total luciferase, z-score 0.254; total luciferase, % of control 86.9.
For STIMATE #3 the deposit lists total luciferase, z-score -0.448; total luciferase, % of control 73.
After knock-down of CD4 #1 the results were total luciferase, z-score 0.742; total luciferase, % of control 96.6.
CD4 #2 showed total luciferase, z-score -0.36; total luciferase, % of control 74.7.
Knock-down of CD4 #3 came out at: total luciferase, z-score 1.3; total luciferase, % of control 108.
Against ERVW-1 #1, the values are total luciferase, z-score -0.0492; total luciferase, % of control 80.9.
With knock-down of ERVW-1 #2, the screen gave total luciferase, z-score -0.502; total luciferase, % of control 71.9.
After knock-down of ERVW-1 #3, the record shows total luciferase, z-score 0.509; total luciferase, % of control 92.
Knock-down of GOLGA6L10 #1 resulted in: total luciferase, z-score 2.53; total luciferase, % of control 132.
GOLGA6L10 #2 scored total luciferase, z-score -0.742; total luciferase, % of control 67.1.
For GOLGA6L10 #3, the entry reads total luciferase, z-score 1.53; total luciferase, % of control 112.
Silencing of BAP1 #1 resulted in: total luciferase, z-score -0.749; total luciferase, % of control 67.
BAP1 #2 gave total luciferase, z-score 1.65; total luciferase, % of control 115.
BAP1 #3 gave total luciferase, z-score 1.02; total luciferase, % of control 102.
With knock-down of SMIM12 #1, the screen gave total luciferase, z-score -0.0842; total luciferase, % of control 80.2.
Knock-down of SMIM12 #2 came out at: total luciferase, z-score -0.493; total luciferase, % of control 72.1.
After knock-down of SMIM12 #3 the results were total luciferase, z-score 0.704; total luciferase, % of control 95.9.
Against CAPN1 #1 the deposit lists total luciferase, z-score 2.78; total luciferase, % of control 137.
For CAPN1 #2, the values are total luciferase, z-score -1.72; total luciferase, % of control 47.7.
With knock-down of CAPN1 #3, the screen gave total luciferase, z-score 1.45; total luciferase, % of control 111.
